Assay results published in patent publication US20260167677A1, “ANTI-ADAM10 ANTIBODIES AND USES IN TREATMENT OF CANCER” (Memorial Sloan Kettering Cancer Center, priority 2022, published 2026).

Sequences of proteins named here, by UniProt entry; tags and fusion partners are left off. A change or cut given only in a name is not applied to a line headed by its entry.
UniProt Q10741: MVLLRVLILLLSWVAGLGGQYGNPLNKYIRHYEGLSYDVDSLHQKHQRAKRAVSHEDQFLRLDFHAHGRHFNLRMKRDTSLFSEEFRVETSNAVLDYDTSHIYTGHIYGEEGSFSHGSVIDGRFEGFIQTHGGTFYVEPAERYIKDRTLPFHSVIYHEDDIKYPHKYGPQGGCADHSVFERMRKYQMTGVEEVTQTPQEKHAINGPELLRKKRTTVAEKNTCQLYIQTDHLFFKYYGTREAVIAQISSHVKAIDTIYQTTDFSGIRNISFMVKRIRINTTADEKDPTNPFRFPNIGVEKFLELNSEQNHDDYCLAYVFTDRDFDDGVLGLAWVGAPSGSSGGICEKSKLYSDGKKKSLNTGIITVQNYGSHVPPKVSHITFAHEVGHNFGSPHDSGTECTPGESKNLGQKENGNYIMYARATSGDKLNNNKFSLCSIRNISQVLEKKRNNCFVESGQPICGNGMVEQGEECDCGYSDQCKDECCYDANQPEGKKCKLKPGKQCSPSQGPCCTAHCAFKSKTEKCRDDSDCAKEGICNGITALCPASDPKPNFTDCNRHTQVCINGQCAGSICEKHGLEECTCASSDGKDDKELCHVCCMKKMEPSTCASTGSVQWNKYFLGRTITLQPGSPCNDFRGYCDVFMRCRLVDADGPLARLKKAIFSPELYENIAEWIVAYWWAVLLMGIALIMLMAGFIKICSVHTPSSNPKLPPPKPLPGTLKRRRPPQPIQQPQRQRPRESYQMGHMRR
UniProt O14672: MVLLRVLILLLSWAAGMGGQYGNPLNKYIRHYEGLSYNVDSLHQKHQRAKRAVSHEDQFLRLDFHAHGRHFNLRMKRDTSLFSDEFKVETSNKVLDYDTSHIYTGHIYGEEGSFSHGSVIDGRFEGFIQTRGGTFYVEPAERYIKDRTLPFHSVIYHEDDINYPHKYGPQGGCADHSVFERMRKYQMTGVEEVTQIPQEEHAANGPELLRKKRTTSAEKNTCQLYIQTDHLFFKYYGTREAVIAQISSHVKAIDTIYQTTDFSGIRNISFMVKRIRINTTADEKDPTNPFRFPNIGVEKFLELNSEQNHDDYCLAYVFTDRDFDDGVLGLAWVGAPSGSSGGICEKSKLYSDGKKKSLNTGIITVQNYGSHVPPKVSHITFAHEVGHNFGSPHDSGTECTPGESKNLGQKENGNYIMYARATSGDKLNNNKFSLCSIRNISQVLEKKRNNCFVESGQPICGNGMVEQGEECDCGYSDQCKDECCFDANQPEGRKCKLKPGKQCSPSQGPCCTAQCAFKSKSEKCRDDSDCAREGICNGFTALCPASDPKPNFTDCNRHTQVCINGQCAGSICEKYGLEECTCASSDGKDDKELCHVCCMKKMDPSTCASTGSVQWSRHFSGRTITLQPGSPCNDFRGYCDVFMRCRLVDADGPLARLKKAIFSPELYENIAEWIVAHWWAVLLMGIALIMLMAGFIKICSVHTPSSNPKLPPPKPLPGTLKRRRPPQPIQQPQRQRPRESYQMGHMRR

Tests used:
[1] = target: bovine ADAM10 disintegrin+cysteine-rich domain construct (D+C, residues 455-646) (bovine) (UniProt Q10741); assay: pull-down with protein A Sepharose bead-bound IgG, SDS-PAGE
[2] = target: human ADAM10 D+C (455-650) (human) (UniProt O14672); assay: ELISA, 1H5 IgG titrated on immobilised human ADAM10 D+C, absorbance 450 nm
[3] = target: bovine ADAM10 disintegrin+cysteine-rich domain construct (D+C, residues 455-646) (bovine) (UniProt Q10741); assay: ELISA on immobilised antigen
[4] = target: human ADAM10 D+C (455-650) (human) (UniProt O14672); assay: ELISA on immobilised antigen
[5] = target: bovine ADAM10 disintegrin+cysteine-rich domain construct (D+C, residues 455-646) (bovine) (UniProt Q10741); assay: ELISA, 1H5 IgG titrated on immobilised bovine ADAM10 D+C, absorbance 450 nm

binding [1]: binds
binding [2]: binds
binding [3]: binds
binding [4]: binds
binding [5]: binds
B1: 1H5 IgG (fully human anti-ADAM10 monoclonal antibody) (antibody, V domains shown)
VH: QVQLVESGGGLVKPGGSLRLSCAASGFTFSDYYMSWIRQAPGKGLEWVSYISSSGSTIYYADSVKGRFTISRDNAKNSLYLQMNSLRAEDTAVYYCARDFYDSKIFDYWGQGTLVTVSS
VL: DIQMTQSPSSLSASVGDRVTITCRASQSISSYLNWYQQKPGKAPKLLIYAASSLQSGVPSRFSGSGSGTDFTLTISSLQPEDVGVYYCMEGLKTPFTFGPGTKLEIKR

These are yes or no findings as the source states them, for the method shown. Binding calls can cover weak binding; strength is not graded here.
